According to PubChem BioAssay AID1347076 (National Center for Advancing Translational Sciences (NCATS), 2019):
Hit rate of the full screen: of about 400,000 compounds, about 13,000 (3.2%) were called active. This list was built around the results that the source calls inconclusive (neither active nor inactive); the mix of calls is not that of the screen. Calls come from the whole dose curve; as a rule, active = well fitted cell-killing curve with a large enough effect; inconclusive = small, poorly fitted or top-dose-only effect, or effect the other way; inactive = flat fitted curve, though single readings scatter. A potency beside an inconclusive call is a rough fit, not a confirmed value.
% is set by controls: 0 for no effect and ±100 for the full control effect; potency is the fitted concentration of half-maximal effect.

Experiment: qHTS assay for MDR1-selective chemotherapeutics: Primary screen using the drug-selected MDR subline cells KB-V1; note: nearly all actives have a fitted effect of over 60% in size
Conditions: KB-V1 MDR cells viability, CellTiter-Glo, 72 h; activity change, negative = cytotoxicity: at 46.1 µM (top of the series)
Method in brief: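 In this primary screen, KB-V1 cells overexpressing P-gp are incubated with library compounds (lowest to highest concentration) for 72 h at 37 degrees C before a luminescent ATP viability read.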
In the case of `Cc1ccccc1CN1C(=O)CSCC1(C)C(=O)Nc1ccc2c(c1)OCCO2` (centres undefined), the Potency is reported as inconclusive: 8.2 µM [cytotoxic, partial curve, poor fit]. In the case of `Cc1ccc2c(c1)cc1c(=O)n(Cc3ccccc3Cl)nc(C)n12`, the Potency is reported as inconclusive: 29.1 µM [rising, single point]. In the case of `CCCCCCCCN1C(=O)[C@H](CC(=O)NCc2cccc3ccccc23)C[C@@]2(C(=O)OCC)CCC=C12`, the Potency is reported as inconclusive: 13 µM [cytotoxic, partial curve, poor fit]. In the case of `COc1ccc(S(=O)(=O)n2nc(C)c(S(=O)(=O)N3CCCCCC3)c2C)cc1C`, the Potency is reported as inconclusive: 29.1 µM [rising, partial curve, poor fit]. In the case of `OC(CN1CCOCC1)Cn1c(-c2cccc(Cl)c2)nc2ccccc21` (centres undefined), the Potency is reported as inconclusive: 14.6 µM [cytotoxic, partial curve]. With `CC(C)COC(=O)N1CC(O)CC1C(=O)Nc1ccc2c(c1)OCO2` (centres undefined) the “activity change, negative = cytotoxicity” value was inactive: -0.212%. In the case of `CCC(C)(C)n1nnnc1C(c1ccc2ncccc2c1)N1CCN(c2nc3ccccc3s2)CC1` (centres undefined), the “activity change, negative = cytotoxicity” value is reported as inactive: 0%. In the case of `CNC(=S)N=Nc1c(O)[nH]c2ccccc12`, the Potency is reported as inconclusive: 29.1 µM [cytotoxic, single point]. In the case of `Cc1ncc([N+](=O)[O-])n1CC(=O)Nc1ccc(F)cc1`, the “activity change, negative = cytotoxicity” value is reported as inactive: 42.7%. For `CN(C)S(=O)(=O)c1ccc(C(=O)Nc2nc3ccccc3[nH]2)cc1`, the Potency was inconclusive: 16.4 µM [cytotoxic, single point]. For `O=C(O)CSc1nc(-c2ccc(Cl)cc2)nc2c1oc1ccccc12`, the “activity change, negative = cytotoxicity” value was inactive: 2.26%. With `CC1(C)CC(=O)c2sc(NC(=O)CN3CCCCC3)nc2C1` the “activity change, negative = cytotoxicity” value was inactive: -6.85%. With `Cc1sc2ncnc(N3CCC(C(=O)N(C)CC(=O)Nc4ccccc4Br)CC3)c2c1C` the Potency was inconclusive: 9.2 µM [cytotoxic, partial curve, poor fit]. For `COc1ccc(COCC(O)CN2CCN(S(=O)(=O)c3ccc(C(C)C)cc3)CC2)cc1` (centres undefined), the Potency was inconclusive: 20.6 µM [cytotoxic, partial curve, poor fit]. With `CC(C)C(=O)Nc1ccc([N+](=O)[O-])cc1Br` the Potency was inconclusive: 29.1 µM [rising, single point]. In the case of `N=C1C(c2ccccc2)=C(O)CN1c1cccc2ccccc12`, the Potency is reported as inconclusive: 23.1 µM [cytotoxic, single point]. In the case of `COc1ccc(Cn2c(=O)c3[nH]cnc3n(-c3ccc(C)cc3)c2=O)cc1`, the “activity change, negative = cytotoxicity” value is reported as inactive: -11.1%. In the case of `COc1ccc([C@H]2C[C@H](n3cc(C4CC4)nn3)[C@@H](O)CN2C(=O)C2CCCCC2)cc1`, the Potency is reported as inconclusive: 29.1 µM [rising, single point]. For `O=C(CN1C(=O)CSc2ccc(S(=O)(=O)N3CCOCC3)cc21)NCCCN1CCCCC1`, the Potency was inconclusive: 11.6 µM [rising, partial curve, poor fit]. With `CC(=O)Nc1ccc(NC(=O)/C=C/c2ccc3c(c2)OCO3)cc1` the “activity change, negative = cytotoxicity” value was inactive: -17.6%. With `CCc1ccc(NC(=O)Cn2c(=O)n(-c3ccccc3C)c(=O)c3c2c2cc(OC)ccc2n3C)cc1` the “activity change, negative = cytotoxicity” value was inactive: -78.8%. In the case of `O=c1[nH]c(SCC2CCCCO2)nc2ccccc12` (centres undefined), the Potency is reported as inconclusive: 18.4 µM [cytotoxic, single point]. In the case of `CCOc1ccccc1N1CCN(C2=C(NS(=O)(=O)c3cccs3)C(=O)c3ccccc3C2=O)CC1`, the Potency is reported as inconclusive: 20.6 µM [cytotoxic, single point]. With `CC1(C(=O)Nc2ccc3c(c2)OCO3)Cc2c(-c3cccc(C(N)=O)c3)ccnc2O1` (centres undefined) the Potency was inconclusive: 23.1 µM [cytotoxic, partial curve, poor fit]. In the case of `Cc1cc(NS(=O)(=O)c2ccc(NC(=O)/C=C/c3ccccc3)cc2)no1`, the activity change, negative = cytotoxicity is reported as inconclusive: 36.4%. With `OC(C[n+]1c(Cl)ccc2ccccc21)c1ccccc1` (centres undefined) the Potency was inconclusive: 18.4 µM [cytotoxic, single point]. With `CC(C)Nc1nc(Cl)nc(N(C#N)CN2C(=O)c3ccccc3C2=O)n1` the “activity change, negative = cytotoxicity” value was inactive: 0%. With `Cc1ccc2sc(N(CCCN(C)C)C(=O)c3ccc(Br)s3)nc2c1C` the Potency was inconclusive: 29.1 µM [cytotoxic, single point]. For `Cc1nc(CNS(=O)(=O)c2ccc(Oc3ccccc3)cc2)cs1`, the Potency was active: 8.2 µM. With `Cc1ccc(/C=N/NC(=O)C(C)Oc2ccccc2[N+](=O)[O-])s1` (centres undefined) the Potency was inconclusive: 23.1 µM [cytotoxic, partial curve]. With `COc1cccc(CNC(C)C(=O)Nc2ccc(S(=O)(=O)N3CCCC3)cc2)c1` (centres undefined) the Potency was inconclusive: 7.31 µM [cytotoxic, partial curve]. In the case of `O=C(c1ccco1)N1CCn2cccc2C1c1ccccc1` (centres undefined), the Potency is reported as inconclusive: 29.1 µM [cytotoxic, single point]. In the case of `Cc1cccc(NC(=S)NCCSc2ccc(Cl)cc2)c1`, the Potency is reported as inconclusive: 29.1 µM [cytotoxic, single point]. In the case of `Cn1c(=O)c(=O)n(C)c2cc(N3CCCCC3)c(NS(=O)(=O)c3ccc([N+](=O)[O-])cc3)cc21`, the Potency is reported as inconclusive: 0.291 µM [rising, full curve, poor fit]. With `COc1ccccc1-c1cc2c(c3c1ccn3C)C1CCC2C1` (centres undefined) the “activity change, negative = cytotoxicity” value was inactive: -19.4%. With `CCCCc1ccc(-c2nn[nH]n2)nc1` the “activity change, negative = cytotoxicity” value was inactive: -16.8%. With `CCOc1ccc2nc(NC(=O)C34CC5CC(CC(NC(C)=O)(C5)C3)C4)sc2c1` the Potency was inconclusive: 20.6 µM [cytotoxic, partial curve, poor fit]. In the case of `COc1ccccc1CC(=O)Nc1ccc([N+](=O)[O-])cc1OC`, the Potency is reported as active: 16.4 µM. For `O=C(NCCN1CCN(C(=O)c2cccs2)CC1)C(=O)Nc1ccc(Br)cc1`, the Potency was inconclusive: 29.1 µM [cytotoxic, single point]. For `COC1=C(Nc2ccccc2)C(=O)c2ccccc2C1=O`, the Potency was inconclusive: 20.6 µM [cytotoxic, single point]. In the case of `COC(=O)c1ccc(OC)c(CSc2nnc(COc3ccccc3)o2)c1`, the Potency is reported as active: 20.6 µM. In the case of `S=C(NCC1CCCO1)Nc1cc(Cl)c(Cl)cc1Cl` (centres undefined), the “activity change, negative = cytotoxicity” value is reported as inactive: -0.138%. With `CN(C)c1cccc(C(=O)NNC(=O)C23CC4CC(CC(C4)C2)C3)c1` the “activity change, negative = cytotoxicity” value was inactive: -6.59%. In the case of `O=C(NCCCc1ccccc1)c1ccc(CS(=O)Cc2ccccc2Cl)o1` (centres undefined), the activity change, negative = cytotoxicity is reported as inconclusive: -33.9%.
